Assay results reported in patent US20260206760A1, “AZOLE COMPOUNDS FOR CONTROLLING AND COMBATING INVERTEBRATE PESTS” (FMC CORPORATION, priority 2022, published 2026).
Some of these results come from one statement about several compounds together. For at least one compound, name, drawing or mass did not settle the structure.

Experiments:
Format in all cases: in vivo
[1] = tested on: corn planthopper (Peregrinus maidis (Ashmead)); details: sprayed at 50 ppm; nymphs; assessed after 6 days
Method: (§1) Test compounds were formulated using a solution containing 10% acetone, 90% water and 300 ppm Activator 90® non-ionic surfactant (Loveland Products, Loveland, Colorado, USA). The formulated compounds were applied in 1 mL of liquid through an atomizer nozzle positioned 1.27 cm (0.5 inches) above the top of each test unit. Test compounds were sprayed at the rates indicated, and each test was replicated three times.
For evaluating control of corn planthopper (Peregrinus maidis (Ashmead)) through contact and/or systemic means, the test unit consisted of a small open container with a 3-4-day-old corn (maize) plant inside. White sand was added to the top of the soil prior to application of the test compound.
Test compounds were formulated and sprayed at 250 and/or 50 ppm and/or 10 ppm. After spraying of the formulated test compound, the test units were allowed to dry for 1 h before they were post-infested with ~15-20 nymphs (18-to-21-day-old). A black, screened cap was placed on the top of each test unit, and the test units were held for 6 days in a growth chamber at 22-24° C. and 50-70% relative humidity. Each test unit was then visually assessed for insect mortality.

[2] = tested on: cotton melon aphid (Aphis gossypii (Glover)); details: sprayed at 250 ppm; assessed after 6 days
Method: as §1
For evaluating control of cotton melon aphid (Aphis gossypii (Glover)) through contact and/or systemic means, the test unit consisted of a small open container with a 5-day-old okra plant inside. This was pre-infested with 30-40 insects on a piece of leaf according to the cut-leaf method, and the soil of the test unit was covered with a layer of sand.
Test compounds were formulated and sprayed at 250 and/or 50 ppm. After spraying, the test units were maintained in a growth chamber for 6 days at 19° C. and 70% relative humidity. Each test unit was then visually assessed for insect mortality.

[3] = tested on: green peach aphid (Myzus persicae (Sulzer)); assay: Test B: control of green peach aphid, spray on radish plant, visual mortality; details: sprayed at 250 ppm; assessed after 6 days
Method: as §1
For evaluating control of green peach aphid (Myzus persicae (Sulzer)) through contact and/or systemic means, the test unit consisted of a small open container with a 12-15-day-old radish plant inside. This was pre-infested by placing on a leaf of the test plant 30-40 aphids on a piece of leaf excised from a culture plant (cut-leaf method). The aphids moved onto the test plant as the leaf piece desiccated. After pre-infestation, the soil of the test unit was covered with a layer of sand.
Test compounds were formulated and sprayed at 250 and/or 50 ppm. After spraying of the formulated test compound, each test unit was allowed to dry for 1 hour and then a black, screened cap was placed on top. The test units were held for 6 days in a growth chamber at 19-21° C. and 50-70% relative humidity. Each test unit was then visually assessed for insect mortality.

Row | Structure (SMILES) | mortality [1] | mortality [2] | mortality [3]
1 | O=C(CCc1ccc(Br)cc1)c1c(F)cncc1-n1nccn1 [Compound 11] | at least 80% | – | –
2 | Fc1cncc(-n2ccnn2)c1C1CC1c1ccc(C(F)(F)F)cc1 (stereo not shown) [Compound 3, 3-fluoro-5-(triazol-1-yl)-4-[2-[4-(trifluoromethyl)phenyl]cyclopropyl]pyridine] | – | at least 80% | –
3 | FC(F)(F)c1ccc(/C=C/c2c(Cl)cncc2-n2nccn2)cc1 [Compound 2] | – | at least 80% | at least 80%
